The list shows a part of the results. Shown are side measurements of this screen, not its main read-out; they come without a call. The list favours compounds with an active or inconclusive main result. Potencies come from curve fits of mixed quality, noted in brackets.

A short description of the experiment: qHTS Assay to Find Inhibitors of Chronic Active B-Cell Receptor Signaling. Particulars: ABC-DLBCL IkBa-CBG/CBR reporter, luminescence ratio (green luciferase fused to IkBa over red control in TMD8 lymphoma cells), 4 h. In outline: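 Cell line TMD8 (human ABC DLBCL), stably expressing tet-inducible CBG68-IkBa fusion and CBR; IMDM/0.5% FBS; cpd up to 46 uM; dox induction, 4 h, 37C/5% CO2; dual luminescence; green/red ratio; MG132 control.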
Background: Quantitative high-throughput screening tests each substance at several concentrations.

The mark [1] stands for this setting: measured here: CBR red luminescence, cell number.
The mark [2] stands for this setting: measured here: IkBa-CBG green luminescence.

The term AC50 denotes the concentration giving half of the maximal activity seen. Regarding `Cc1nc(-c2ccccn2)sc1C(=O)Nc1ccc(F)cc1F`, the AC50 under setting [1] is 0.891 µM [rising, partial curve, poor fit].

For `CCC(=O)N(Cc1ccco1)c1nc(-c2ccc(OC)cc2)cs1`, the AC50 under setting [1] is 1.84 µM [rising, partial curve, poor fit]. With `COc1cccc(-c2ncc3ccccc3c2CO)c1`, the AC50 under setting [1] was 10.3 µM [falling, partial curve]. Regarding `Cc1ccccc1OCC(=O)Nc1nnc(-c2ccncc2)s1`, the AC50 under setting [1] is 11.2 µM [falling, partial curve, poor fit]. Consider `O=C1CC(c2cccc(Cl)c2)CC(O)=C1C=NC1CCCC1` (configuration not stated), for which the AC50 under setting [1] was 0.00461 µM [rising, full curve, poor fit]. The same measure, in the same setting: next, `CCC/C(C#CCCN1C(=O)c2ccccc2C1=O)=C1/c2ccccc2C(=O)N1c1ccccc1`: 2.91 µM [falling, full curve]; `COCCN1C(=O)C(=O)/C(=C(/O)c2ccc(OC(C)C)cc2)C1c1cccnc1` (configuration not stated): 29.1 µM [rising, single point].

Turning to `O=c1c2c3nc4ccccc4nc3n(-c3ccc4c(c3)OCCO4)c2ncn1CC1CCCO1` (configuration not stated), the AC50 under setting [1] is 14.1 µM [rising, partial curve].

Take `COc1ccc2c(c1)[nH]c1c(Cl)ncnc12`: the AC50 under setting [1] was 5.8 µM [falling, full curve].

For the compound `Cc1cc(N2CCN(C(=O)c3ccco3)CC2)c2ccccc2n1`, the AC50 under setting [1] was 11.2 µM [falling, partial curve]. Still for that read-out and setting: next, `COc1ccc(NC(=O)CN2CCOCC2)cc1S(=O)(=O)N1CCCCC1`: 7.31 µM [rising, partial curve, poor fit]. For the compound `Cc1ccccc1N(C(=O)c1snc(C(N)=O)c1N)C(C(=O)NCc1ccccc1)c1ccc(O)cc1` (configuration not stated), under setting [2], the AC50 is 7.94 µM [falling, partial curve, poor fit]. Turning to `CCOC(=O)c1cc(-c2ccccc2)n(Cc2cc(CC)no2)n1`, the AC50 under setting [1] was 32.6 µM [falling, single point]. As for `O=C(Nc1nc2ccccc2s1)c1ccc2c(c1)S(=O)(=O)c1ccccc1C2=O`, under setting [1], the AC50 was 3.98 µM [rising, partial curve, poor fit].

With `CCN(CC(=O)NCc1ccc(F)cc1)C(=O)/C=C/c1ccc(OC)c(S(=O)(=O)NC(C)C)c1`, the AC50 runs as follows: under setting [1], 17.8 µM [rising, partial curve]; under setting [2], 12.6 µM [falling, partial curve]. For `NCCCn1c(C(=O)c2ccc(Cl)cc2)c2ccc([N+](=O)[O-])cc2[n+]1[O-]`, the AC50 under setting [1] is 3.26 µM [falling, partial curve]. Same read-out and setting: next, `COc1cc(OC)cc(C(=O)Nc2ccc3c(c2)COC3=O)c1`: 0.206 µM [falling, full curve, poor fit]; `Nc1c(Br)cc2oc(-c3ccccc3)nc2c1Br`: 4.11 µM [rising, full curve, poor fit]. For the compound `O=C1c2ccccc2C(=O)N1CCOc1ccc(F)cc1`, the AC50 under setting [1] was 15.8 µM [rising, single point]. Still for that read-out and setting: next, `O=C(CC1Sc2ccccc2NC1=O)c1ccc(Br)cc1` (configuration not stated): 4.11 µM [rising, partial curve, poor fit].

As to `COCCCNC(=O)C[C@H]1C[C@H](C(=O)N2CCOCC2)[C@@]2(CCC3CCCC3)c3[nH]c4ccc(Cl)cc4c3CCN2C1=O`, the AC50 under setting [1] was 0.13 µM [rising, full curve, poor fit]. For the compound `Cc1sc2nc(-c3ccc(Br)cc3)oc(=O)c2c1C`, the AC50 under setting [1] is 0.282 µM [falling, full curve, poor fit]. The same measure, in the same setting: next, `CC1CCN(CCC(=O)N2CCCc3c2c(=O)oc2ccc(O)cc32)CC1`: 17.8 µM [falling, partial curve, poor fit]; `CCn1ccc2c(OCC(=O)Nc3ccccc3C)cccc2c1=O`: 2.82 µM [falling, partial curve]. Same read-out and setting: next, `Cc1c(C(=O)N2CCN(C(=O)c3ccco3)CC2)oc2c(Cl)cccc12`: 3.26 µM [rising, single point]; `O=C(Nc1cccnc1)c1cccc(S(=O)(=O)N2CCCCC2)c1`: 6.31 µM [falling, full curve]. Still for that read-out and setting: next, `CCCOC(=O)c1ccc(NC(=O)c2ccccc2OC)cc1`: 8.91 µM [falling, partial curve, poor fit]; `C/C(=C\c1cccc(Cl)c1Cl)C(=O)c1c(C)cc(C)[nH]c1=O`: 0.355 µM [rising, full curve]; `CC(C)Cc1cc(C(=O)NCCCN2CCOCC2)no1`: 8.91 µM [rising, partial curve, poor fit]. Consider `CN(C(=S)NC1CCCCC1)C1(c2ccccc2Cl)CCCCC1=O` (configuration not stated), for which, under setting [1], the AC50 was 23.1 µM [falling, single point]. In the case of `O=C(CBr)N1CCc2ccccc2C(c2ccccc2)C1` (configuration not stated), the AC50 under setting [1] was 31.6 µM [rising, single point] and the AC50 under setting [2] is 35.5 µM [falling, single point]. `CN(Cc1ccc(Cl)c(Cl)c1)C(=O)c1cccc(S(=O)(=O)N2CCN(Cc3ccccc3)CC2)c1`: the AC50 under setting [1] was 10.3 µM [falling, partial curve]. Still for that read-out and setting: next, `COc1cc(CN2CCN(C(=O)c3cccc4ccccc34)CC2)cc(OC)c1O`: 7.94 µM [rising, partial curve, poor fit]; `Nc1nc(N)c2cc(Sc3ccc4ccccc4c3)ccc2n1`: 5.62 µM [falling, full curve, poor fit]; `O=C(COc1ccc(/C=N/NC(=O)c2ccccc2O)cc1)Nc1ccccc1`: 4.47 µM [falling, partial curve, poor fit]. On the same count and under the same terms, next, `OCc1cn(-c2ccccc2)nc1-c1ccc(Br)cc1`: 5.01 µM [rising, full curve]; `COc1ccc(/C=C/c2cc[n+](C(=O)Cc3ccccc3)cc2)cc1`: 15.8 µM [falling, single point]; `COc1ccc(Cl)cc1NC(=O)CN(C)C(=O)c1cc(=O)c2ccccc2o1`: 0.461 µM [rising, full curve]. As for `CCOC(=O)C(=O)Nc1ccc(OCc2ccccc2)cc1`, the AC50 under setting [1] was 12.6 µM [falling, single point]. Same read-out and setting: next, `COc1ccc(CCNC(=O)C2CCCN(S(=O)(=O)c3ccc(F)cc3)C2)cc1` (configuration not stated): 5.62 µM [rising, single point].

`CCOC(=O)c1cc(-c2ccccc2)sc1NC(=O)C(C)Sc1nnnn1C` (configuration not stated): the AC50 reads like this: under setting [1], 14.1 µM [falling, single point]; under setting [2], 35.5 µM [rising, partial curve, poor fit].

For the compound `Cc1cccc(NC(=O)CS(=O)(=O)c2cn(C)c3ccccc23)c1`, the AC50 under setting [1] was 29.1 µM [falling, single point].

Turning to `Clc1ccc(-c2c(C3=NCCCN3)nnn2-c2ccc(Cl)cc2)cc1`, the AC50 under setting [1] is 22.4 µM [falling, partial curve, poor fit]. Still for that read-out and setting: next, `Cc1ccc(N2C(=O)CC(SCC(=O)Nc3ccc(S(N)(=O)=O)cc3)C2=O)cc1` (configuration not stated): 5.62 µM [rising, single point].

Turning to `CCOc1ccc(-n2c(-c3ccco3)nc3c(cnn3-c3ccc(C)cc3)c2=O)cc1`, the AC50 under setting [1] is 3.55 µM [rising, single point]. For the compound `O=C(COCc1cc(-c2ccc3c(c2)OCO3)on1)N1CCN(c2ccccc2)CC1`, under setting [1], the AC50 was 35.5 µM [falling, single point]. Same read-out and setting: next, `Cn1cc2ccc([N+](=O)[O-])cc2n1`: 3.16 µM [falling, full curve, poor fit]. With `CC1CCCC(C)N1c1nnc(NC(=O)Cn2c(=O)oc3ccccc32)s1` (configuration not stated), under setting [1], the AC50 is 0.146 µM [rising, full curve, poor fit]. On the same count and under the same terms, next, `Cn1c(NC(=O)c2cccc(Cn3cc(Cl)cn3)c2)nc2ccccc21`: 0.206 µM [rising, full curve]. With `Cc1cc(CC(=O)O)n(C)c1C(=O)c1ccc(Cl)cc1`, the AC50 under setting [1] is 2.59 µM [rising, single point]. Still for that read-out and setting: next, `Cc1cc(N)n2ncc(-c3cccc(Br)c3)c2n1`: 0.447 µM [rising, full curve, poor fit]; `COc1ccc(C(=O)C2CCCCC2=O)cc1` (configuration not stated): 10 µM [falling, single point]. On the same count and under the same terms, next, `CN1C(=O)CC(N2CCN(CCN=CC3=C(O)CC(C)(C)CC3=O)CC2)C1=O` (configuration not stated): 35.5 µM [rising, single point]; `COc1cccc(CN2CCNC(=O)C2CC(=O)N(C)CCc2ccccn2)c1OC` (configuration not stated): 3.16 µM [rising, full curve, poor fit]. For the compound `CCOc1ccc(S(=O)(=O)Nc2cc(OC)ccc2OC)cc1`, the AC50 runs as follows: under setting [1], 14.6 µM [rising, partial curve]; under setting [2], 11.6 µM [falling, partial curve].

Regarding `CC(C)c1ccccc1NC(=O)COc1ccc2c(=O)c(Oc3ccc4ccccc4c3)coc2c1`, the AC50 under setting [1] was 7.31 µM [rising, partial curve, poor fit]. Turning to `CCn1c(SCC(=O)NCC2CCCO2)nc2c([nH]c3ccccc32)c1=O` (configuration not stated), the AC50 under setting [1] was 0.891 µM [falling, full curve].

As to `Cc1[nH]c2ccccc2c1C(=O)COC(=O)c1c(-c2ccccc2Cl)noc1C`, the AC50 under setting [1] is 0.103 µM [rising, full curve, poor fit] and the AC50 under setting [2] is 25.9 µM [rising, partial curve, poor fit]. As to `Clc1ccc(CNc2nnnn2-c2ccccc2)c(Cl)c1`, the AC50 under setting [1] is 14.6 µM [falling, partial curve, poor fit]. The same measure, in the same setting: next, `Fc1cc(F)c(NC(=S)N2CCOCC2)c(F)c1`: 8.91 µM [rising, partial curve, poor fit]; `Cc1cccc2cc(COC(=O)c3ccccn3)c(=O)[nH]c12`: 2.31 µM [rising, partial curve, poor fit]. Still for that read-out and setting: next, `C=CCn1c(NC(=O)c2ccco2)nc2ccccc21`: 35.5 µM [falling, single point].
